According to PubChem BioAssay AID2685 (National Center for Advancing Translational Sciences (NCATS), 2010):
Some of the results follow. These are further read-outs of the screen, such as a control signal, another cell line or another target. No call is given for them. Compounds called inactive in the main read-out are mostly missing here. Words in brackets tell the shape of the fitted curve; partial curves, single points and poor fits give uncertain potencies.

Assay: qHTS Assay for Lipid Storage Modulators in Drosophila S3 Cells;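 on cell number change: cells counted by Cell Tracker Red CMTPX staining in the red channel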
Conditions: BODIPY lipid droplet fluorescence, 18-24 h; for cell number change: measured here: cell count max response, cells fed with added oleic acid
How it was run: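 Drosophila S3 cells loaded with oleic acid (400 uM, as added) and compounds at several concentrations; lipid droplets imaged by 488-nm laser-scanning cytometry, 500–530 nm intensity and object ratio to cell channel. Percent activity normalized to 20 uM Triacsin C.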

[1] = measured here: lipid fluorescence (Fed channel) AC50, cells fed with added oleic acid
[2] = measured here: cell number channel AC50, cells fed with added oleic acid

Compound	cell number change	AC50 [1]	AC50 [2]
CN(C)C(CNC(=O)Cc1ccc(Br)cc1)c1ccccc1 (stereo not drawn)	23.5%	206 nM [rising, single point]	
Cn1cc(C(=O)N2CCOCC2)c2ccccc21	-33.9%		
Cc1cc(OCC(=O)NCc2ccncc2)c2c3c(c(=O)oc2c1)CCCC3	-24.1%	29100 nM [falling, single point]	
O=C(NC(Cc1cnc[nH]1)C(=O)O)c1ccccc1 (stereo not drawn)	-39.7%		
CN(C)c1ccc(C(=O)N/N=C/C23CC[C@@H](O)CC2(O)CC[C@@H]2[C@@H]3CCC3(C)C(C4=CC(=O)OC4)CCC23O)cc1 (stereo partly drawn)		366 nM [rising, partial curve, poor fit]	259 nM [rising, full curve, poor fit]
CCC1C(C#N)=C(N)Oc2c1c(=O)oc1ccccc21 (stereo not drawn)	23.4%		
COc1ccc(N/N=C/c2c(O)n(-c3ccc(C)c(C)c3)c(=O)[nH]c2=O)cc1	7.45%	1840 nM [rising, partial curve]	
O=[N+]([O-])c1cc(Cl)c(O)c(-[n+]2c(-c3ccccc3)cc(-c3ccccc3)cc2-c2ccccc2)c1	-4.14%	29100 nM [falling, single point]	
O=c1[nH]c(=O)n(-c2cccc(Cl)c2)c(O)c1C=NCCN1CCCCC1	-5.21%	164 nM [falling, full curve, poor fit]	
CCSc1nnc([C@@H](N)Cc2c[nH]c3ccccc23)o1	-9.34%	3260 nM [falling, full curve, poor fit]	6510 nM [falling, partial curve, poor fit]
C=Cn1ccnc1P(=S)(c1ccccc1)c1nccn1C=C	-25.4%		
CC1=NN=C(c2ccc(N)cc2)c2cc3c(cc2C1)OCO3	51.7%	820 nM [rising, full curve]	517 nM [rising, full curve]
O=C(O)c1cc[c]([Hg][Cl])cc1	-31.7%		
Cc1nn(CC(=O)N2CCC3(CC2)OCCO3)c(=O)c2cc3ccccc3n12	59.6%	6510 nM [falling, single point]	13000 nM [rising, partial curve, poor fit]
CC(C)CC(C)N (stereo not drawn)	1.1%	18400 nM [rising, single point]	
CC(=Nc1ccc2c(c1)CCC2)c1c(O)n(C)c(=O)n(C)c1=O	-30.9%		2310 nM [falling, full curve]
C/C=C(\C)C(=O)N[C@@H](c1ccccc1)[C@@H](O)C(=O)O[C@H]1C[C@@]2(O)[C@@H](OC(=O)c3ccccc3)C3[C@](C)(C(=O)[C@H](OC(C)=O)C(=C1C)C2(C)C)[C@H](O)C[C@H]1OC[C@@]31OC(C)=O (stereo partly drawn)	-23.9%	1300 nM [rising, partial curve]	
CN=C(SCc1ccccc1)c1c(O)n(C)c(=O)n(C)c1=O	24.8%	164 nM [rising, full curve]	
O=C(c1cc(S(=O)(=O)N2CCOCC2)ccc1F)N1CCC2(CC1)OCCO2	2.64%		
Cc1ccc(N(C)C(=O)Oc2ccc(C(=O)c3ccc(Cl)cc3)cc2)cc1	-62.8%		20600 nM [falling, single point]
C=CCn1c(O)c(C(C)=NCCC(c2ccccc2)c2ccccc2)c(=O)[nH]c1=O	7.79%	3260 nM [rising, full curve, poor fit]	
CC12CCCCC1N(O)CN2O (stereo not drawn)	30.8%		1640 nM [rising, full curve]
CCCCCn1c(=O)c(C(=O)NCc2ccccn2)c(O)c2ccccc21	-2.59%	65.1 nM [rising, full curve, poor fit]	
O=C1NC(=O)N(c2ccc3c(c2)OCO3)C(=O)/C1=C/c1ccc(N2CCCCC2)o1	29.1%		
COc1ccc(CCN(C)Cc2c(F)cccc2F)cc1OC	6.42%	29100 nM [rising, single point]	
O=C(COC(=O)Cc1ccccc1)NCCNC(=O)COC(=O)Cc1ccccc1	-23%	4610 nM [falling, partial curve, poor fit]	4110 nM [falling, partial curve, poor fit]
CC(=O)OC1(c2ccc(C)cc2)CN2CCC1c1ccccc12 (stereo not drawn)	6.72%	10.3 nM [rising, full curve, poor fit]	
CC(C(=O)c1ccc(Cl)cc1Cl)n1cncn1 (stereo not drawn)	5.41%	29100 nM [falling, single point]	2060 nM [rising, partial curve]
CCN1C(=O)N(CC)C(=O)C2(Cc3ccccc3N3CCN(c4ccccc4)CC32)C1=O (stereo not drawn)	14.5%	23100 nM [rising, single point]	
O=C1NC(=O)[C@]2(Cc3ccccc3N3CCN(c4ccccc4)CC32)C(=O)N1Cc1ccccc1 (stereo partly drawn)		29100 nM [falling, partial curve]	146 nM [rising, single point]

Copied from the entries so far (2 entries):
Compound	cell number change	AC50 [1]	AC50 [2]
O=C(COC(=O)Cc1ccccc1)NCCNC(=O)COC(=O)Cc1ccccc1	-23%	4610 nM [falling, partial curve, poor fit]	4110 nM [falling, partial curve, poor fit]
CC(=O)OC1(c2ccc(C)cc2)CN2CCC1c1ccccc12 (stereo not drawn)	6.72%	10.3 nM [rising, full curve, poor fit]	
